No constants are given. Whether binding was seen depends on the method and setting. In cells and extracts the contact can be indirect.
Target: Xcdc6 (Xenopus)
Assay: co-immunoprecipitation (preliminary experiments)

binding: no binding
B1: geminin (Xenopus; as used in the co-immunoprecipitation experiments) (other)
chain: MNTNKKQRLDMEKPTMSIKNYFVDKTNESLAPRRTLKVIQPSASGCLVGRTKEPVKNSTKRKLWNDQLTSKKAKVEVAVDPEHRENKDCSSEAYDLMVKETPTCLYWKEVAEERRKALYEALQENEKLHKEIELKDEEIARLKQENDELMELAGHVQYMANMIERLTGNAPRSLEDLKDLDLEEARFEDEADMAEARIEDETDMARPSNSDQNMDAHTV

Reference: patent US6548290 (Harvard, dated 2003)
